Measured values reported in patent publication US20060246069A1.
These are yes or no findings as the source states them, for the method shown. Some results given as binding are weak or reduced against the parent protein; the word gives no strength.

Chains of the proteins cited; added tags and fusions are not shown. Residues count along the entry.
UniProt P13500, residues 24-99: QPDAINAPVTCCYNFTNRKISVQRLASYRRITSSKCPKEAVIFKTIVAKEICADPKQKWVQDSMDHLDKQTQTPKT

Biological target: human Monocyte chemoattractant protein-1 (human) (UniProt P13500)
Assay: ELISA, IgG in two-fold dilutions from 5 µg/mL on immobilized human MCP-1 (0.5 µg/mL), peroxidase-labeled anti-human IgG detection

B1: purified anti-MCP-1 antibody MC32 in the immunoglobulin form (antibody, V domains shown)
VH: QVQLQQSGAEVKKPGSSVKVSCKASGGTFSSYAISWVRQAPGQGLEWMGGFDPEDGETIYAQKFQGRVTMTEDTSTDTAYMELSSLRSEDTAVYYCATDLGGGDYYYGMDVWGPGTTVTVSS
VL: DIQLTQSPSTLSASVGDRATISCRSSQSINTYLHWYQQKPGEAPKLLIYAASTLQSGVPSRFSGSGSGTDFTLTITTLQPEDFATYYCQQSFTTPLTFGGGTKVEIK
binding: binds
